No constants are given. Whether binding was seen depends on the method and setting. Binding seen in cells or lysates may run through a third protein. Some results given as binding are weak or reduced against the parent protein; the word gives no strength. For some assays here: Where a sequence is shown, tags or fusion partners need not be part of it.

For assay [1], the target named is Growth factor receptor binding protein-10 (Grb10), endogenous in 143B cells (human (endogenous in 143B)) (UniProt Q13322). Nature of the assay: co-IP; endogenous proteins in 143B cell lysate; IP lysate 50 mM Tris HCl, 1 mM EDTA, 150 mM NaCl; protein A/G beads and antibodies, 4 °C overnight; western blot.
The next assay has as its target HA-tagged Grb10 (UniProt Q13322). Nature of the assay: co-IP; 293T cells transfected with flag-RILP and HA-Grb10 plasmids; IP lysate 50 mM Tris HCl, 1 mM EDTA, 150 mM NaCl; protein A/G beads and antibodies, 4 °C overnight; western blot. For orientation: A western blot detects proteins with antibodies after separation by electrophoresis.

Turning to “Rab-interacting lysosomal protein (RILP), endogenous in 143B cells (from UniProt Q96NA2 1-401)”, the binding entry in assay [1] is reported as “binds”.
Turning to “flag-tagged RILP (from UniProt Q96NA2 1-401)”, in the assay with HA-tagged Grb10, the binding entry is reported as “binds”.

These data come from article PMC10548720.
